{
  "source": "the supplement of paper PMC8728848",
  "experiment_in_all_cases": "glycan array binding signal (z-score within array); higher = stronger binding",
  "conditions_in_all_cases": "glycan notation: IUPAC condensed, linker removed",
  "key": {"[1]": {"target": "Gal(b1-4)GlcNAc(b1-6)GalNAc", "in_short": "(§1)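 From the Consortium for Functional Glycomics database, 3228 arrays were curated, keeping only those whose protein sequence was available. Binding is given as a within-array Z-score averaged across arrays sharing a protein sequence and across linkers. Negative Z-scores can be read as non-binding.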"}, "[2]": {"target": "Gal(b1-4)GlcNAc(b1-6)[Gal(b1-3)]GalNAc", "in_short": "as §1"}, "[3]": {"target": "Gal(b1-4)GlcNAc(b1-6)[Gal(b1-4)GlcNAc(b1-3)]GalNAc", "in_short": "as §1"}, "Gal(b1-4)GlcNAc6P": {"target": "Gal(b1-4)GlcNAc6P", "in_short": "as §1"}, "Gal(b1-6)Gal": {"target": "Gal(b1-6)Gal", "in_short": "as §1"}, "Gal3S(b1-3)GalNAc": {"target": "Gal3S(b1-3)GalNAc", "in_short": "as §1"}, "Gal3S(b1-3)GlcNAc": {"target": "Gal3S(b1-3)GlcNAc", "in_short": "as §1"}, "[4]": {"target": "Gal3S(b1-3)[Fuc(a1-4)]GlcNAc", "in_short": "as §1"}, "Gal3S(b1-4)Glc": {"target": "Gal3S(b1-4)Glc", "in_short": "as §1"}, "Gal3S(b1-4)Glc6S": {"target": "Gal3S(b1-4)Glc6S", "in_short": "as §1"}, "Gal3S(b1-4)GlcNAc": {"target": "Gal3S(b1-4)GlcNAc", "in_short": "as §1"}, "[5]": {"target": "Gal3S(b1-4)[Fuc(a1-3)]Glc6S", "in_short": "as §1"}, "[6]": {"target": "Gal3S(b1-4)[Fuc(a1-3)]GlcNAc", "in_short": "as §1"}, "[7]": {"target": "Gal3S(b1-4)[Fuc(a1-3)]GlcNAc6S", "in_short": "as §1"}, "Gal3S4S(b1-4)GlcNAc": {"target": "Gal3S4S(b1-4)GlcNAc", "in_short": "as §1"}, "Gal3S6S(b1-4)GlcNAc": {"target": "Gal3S6S(b1-4)GlcNAc", "in_short": "as §1"}, "Gal3S6S(b1-4)GlcNAc6S": {"target": "Gal3S6S(b1-4)GlcNAc6S", "in_short": "as §1"}, "Gal4S(b1-4)GlcNAc": {"target": "Gal4S(b1-4)GlcNAc", "in_short": "as §1"}, "Gal4S6S(b1-4)GlcNAc": {"target": "Gal4S6S(b1-4)GlcNAc", "in_short": "as §1"}, "Gal6P(b1-4)GlcNAc": {"target": "Gal6P(b1-4)GlcNAc", "in_short": "as §1"}, "Gal6S(b1-3)GlcNAc": {"target": "Gal6S(b1-3)GlcNAc", "in_short": "as §1"}, "Gal6S(b1-3)GlcNAc6S": {"target": "Gal6S(b1-3)GlcNAc6S", "in_short": "as §1"}, "Gal6S(b1-4)Glc": {"target": "Gal6S(b1-4)Glc", "in_short": "as §1"}},
  "note": "This is one part of the list.",
  "data": [
    {"binder": "Mermaid2 (Stilbonema majum) (protein) MGSSHHHHHHSSGLVPRGSHMAASGWLRSPQGTVVKLYRRSLSWSKADEFCKDVDGRLVVDRTADMHLFLIKNVLKEKKSRVWVGLRRTAPHSRTWIWSDGTRQNEDDLNTNLWLRDEPNDAAGEEECALFMYSPWEKAWGLNDYLCRGGCRSYQFICEKGIR", "values": [
      {"measurement": "glycan array binding signal (z-score)", "setting": "[1]", "value": -0.317},
      {"measurement": "glycan array binding signal (z-score)", "setting": "[2]", "value": 0.098},
      {"measurement": "glycan array binding signal (z-score)", "setting": "[3]", "value": -0.243},
      {"measurement": "glycan array binding signal (z-score)", "setting": "Gal(b1-4)GlcNAc6P", "value": -0.662},
      {"measurement": "glycan array binding signal (z-score)", "setting": "Gal(b1-6)Gal", "value": 0.995},
      {"measurement": "glycan array binding signal (z-score)", "setting": "Gal3S(b1-3)GalNAc", "value": 1.21},
      {"measurement": "glycan array binding signal (z-score)", "setting": "Gal3S(b1-3)GlcNAc", "value": 0.749},
      {"measurement": "glycan array binding signal (z-score)", "setting": "[4]", "value": -0.527},
      {"measurement": "glycan array binding signal (z-score)", "setting": "Gal3S(b1-4)Glc", "value": 1.66},
      {"measurement": "glycan array binding signal (z-score)", "setting": "Gal3S(b1-4)Glc6S", "value": 0.612},
      {"measurement": "glycan array binding signal (z-score)", "setting": "Gal3S(b1-4)GlcNAc", "value": 0.517},
      {"measurement": "glycan array binding signal (z-score)", "setting": "[5]", "value": -0.639},
      {"measurement": "glycan array binding signal (z-score)", "setting": "[6]", "value": -0.482},
      {"measurement": "glycan array binding signal (z-score)", "setting": "[7]", "value": 0.154},
      {"measurement": "glycan array binding signal (z-score)", "setting": "Gal3S4S(b1-4)GlcNAc", "value": -0.249},
      {"measurement": "glycan array binding signal (z-score)", "setting": "Gal3S6S(b1-4)GlcNAc", "value": 0.553},
      {"measurement": "glycan array binding signal (z-score)", "setting": "Gal3S6S(b1-4)GlcNAc6S", "value": -0.077},
      {"measurement": "glycan array binding signal (z-score)", "setting": "Gal4S(b1-4)GlcNAc", "value": -0.303},
      {"measurement": "glycan array binding signal (z-score)", "setting": "Gal4S6S(b1-4)GlcNAc", "value": 0.216},
      {"measurement": "glycan array binding signal (z-score)", "setting": "Gal6P(b1-4)GlcNAc", "value": -0.237},
      {"measurement": "glycan array binding signal (z-score)", "setting": "Gal6S(b1-3)GlcNAc", "value": -0.649},
      {"measurement": "glycan array binding signal (z-score)", "setting": "Gal6S(b1-3)GlcNAc6S", "value": -0.172},
      {"measurement": "glycan array binding signal (z-score)", "setting": "Gal6S(b1-4)Glc", "value": -0.719}
    ]}
  ]
}
